Measurements reported in PubChem BioAssay AID1259308 (NCATS, 2017).

Assay: 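Genes whose loss raises luciferase production in HEK293 cells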 (primary screen)
Cell system: human HEK293 embryonic kidney cells stably expressing firefly luciferase (HEK-CMV-Luc2-Hygro)
Knock-down reagent: single siRNA against human genes, 0.8 pmol siRNA per well
Duration: 72 h
Detection: 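Reporter luminescence and viable-cell signal on separate replicate plates, given as percent of non-targeting control and median/MAD z-scores, plus per-cell luciferase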
Scale: total luciferase, z-score and total luciferase, % of control: higher = more reporter protein produced; luciferase per cell, z-score: higher = more reporter output per viable cell; viable cells, % of control: higher = more viable cells
Hit rule: 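An siRNA counts as active if its total luciferase robust z-score exceeds 3; genes with two or more such siRNAs out of three were retested with fresh siRNAs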
Calls: active = raised luciferase; inactive = no rise
In all, the deposit lists about 59,000 reagents; this is a part drawn at random. About 1,510 of all reagents (2.6%) were called active. 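Calls use total luciferase alone and ignore viability, so some active siRNAs may act by altering cell number.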 Reagents against one gene are numbered here.

no.	target	reagent no.	total luciferase, z-score	total luciferase, % of control	luciferase per cell, z-score	viable cells, % of control	Outcome
1	HMBS	1	-0.943	63.1	-1.37	101	inactive
2	HMBS	2	0.0821	83.5	-0.619	110	inactive
3	HMBS	3	0.142	84.7	0.38	85.7	inactive
4	PITRM1	1	0.848	98.7	0.803	89.3	inactive
5	PITRM1	2	0.996	102	1.06	86	inactive
6	PITRM1	3	0.543	92.7	0.414	92.9	inactive
7	LONP1	1	-0.179	78.3	0.667	73.4	inactive
8	LONP1	2	-1.37	54.5	-1.9	100	inactive
9	LONP1	3	1.8	118	0.985	101	inactive
10	TOX2	1	-0.984	62.3	0.718	57.6	inactive
11	TOX2	2	-1.08	60.3	-1.29	94.6	inactive
12	TOX2	3	1.25	107	0.76	97.7	inactive
13	ADGRG4	1	0.0752	83.4	0.722	77	inactive
14	ADGRG4	2	-1.6	50	-1.76	88.9	inactive
15	ADGRG4	3	-0.788	66.2	-0.729	89.7	inactive
16	NSG1	1	0.682	95.4	0.548	92.3	inactive
17	NSG1	2	1.27	107	0.596	102	inactive
18	NSG1	3	0.527	92.4	0.24	96.9	inactive
19	EEF1DP3	1	0.32	88.2	0.842	79	inactive
20	EEF1DP3	2	-0.659	68.8	-0.424	85.9	inactive
21	EEF1DP3	3	-0.22	77.5	0.176	82.7	inactive
22	OCIAD2	1	0.0774	83.4	0.619	79.2	inactive
23	OCIAD2	2	-0.0647	80.6	0.123	87.2	inactive
24	OCIAD2	3	-0.569	70.6	-0.102	81	inactive
25	LRRN4CL	1	0.161	85.1	-0.597	111	inactive
26	LRRN4CL	2	2.34	128	2.67	71	inactive
27	LRRN4CL	3	-0.509	71.8	-0.228	85.2	inactive
28	LRRN2	1	-0.251	76.9	0.0405	85	inactive
29	LRRN2	2	0.215	86.2	0.256	90	inactive
30	LRRN2	3	-0.754	66.9	-0.817	92.7	inactive
31	HIVEP3	1	0.269	87.2	0.53	84.8	inactive
32	HIVEP3	2	0.16	85.1	0.171	90.9	inactive
33	HIVEP3	3	1.32	108	1.05	91.6	inactive
34	ERVFRD-1	1	0.476	91.4	0.118	99	inactive
35	ERVFRD-1	2	0.878	99.4	0.352	101	inactive
36	ERVFRD-1	3	0.396	89.8	0.64	84.8	inactive
37	PRP4K	1	-0.5	71.9	-0.254	86	inactive
38	PRP4K	2	1.83	118	0.898	104	inactive
39	PRP4K	3	1.48	111	1.3	88.3	inactive
40	ENDOU	1	0.372	89.3	0.917	78.4	inactive
41	ENDOU	2	-0.844	65.1	-1.36	104	inactive
42	ENDOU	3	-0.579	70.4	-0.45	88.5	inactive
43	EVI5	1	1.05	103	0.749	94.2	inactive
44	EVI5	2	0.0965	83.8	1.15	69.1	inactive
45	EVI5	3	1.13	104	0.457	103	inactive
46	MARK2P10	1	0.333	88.5	0.947	77.1	inactive
47	MARK2P10	2	-0.963	62.7	-0.865	88	inactive
48	MARK2P10	3	0.885	99.5	0.435	99.1	inactive
49	IFT70B	1	0.298	87.8	-0.048	99.4	inactive
50	IFT70B	2	0.706	95.9	0.831	86.1	inactive
51	IFT70B	3	0.68	95.4	0.69	88.9	inactive
52	TM9SF1	1	-0.511	71.7	-0.509	91.6	inactive
53	TM9SF1	2	2.2	126	2.57	71.4	inactive
54	TM9SF1	3	0.104	84	0.205	88.9	inactive
55	PDE2A	1	-1.2	57.9	-1.03	84.9	inactive
56	PDE2A	2	-1.73	47.4	-2.29	96.7	inactive
57	PDE2A	3	0.749	96.8	1.13	80.4	inactive
58	CPAP	1	-0.297	76	-0.248	90.6	inactive
59	CPAP	2	1.22	106	1.36	83	inactive
60	CPAP	3	-0.131	79.3	-0.285	95.5	inactive
61	ARHGAP5-AS1	1	1.9	120	1.86	81.9	inactive
62	ARHGAP5-AS1	2	-1.94	43.2	-2.04	82.5	inactive
63	ARHGAP5-AS1	3	0.0388	82.7	0.162	88.5	inactive
64	S100A5	1	-0.684	68.3	-0.3	82.6	inactive
65	S100A5	2	2.57	133	2.4	78.9	inactive
66	S100A5	3	1.06	103	0.59	98.6	inactive
67	CNR2	1	-0.444	73.1	-0.248	87.1	inactive
68	CNR2	2	-1.28	56.4	-1.36	90.2	inactive
69	CNR2	3	-0.212	77.7	-0.216	91.9	inactive
70	FABP2	1	-0.974	62.5	-1.82	113	inactive
71	FABP2	2	-0.751	66.9	-0.629	88.3	inactive
72	FABP2	3	-0.404	73.9	-0.864	104	inactive
73	NKX2-3	1	-0.29	76.1	0.389	76.8	inactive
74	NKX2-3	2	-0.391	74.1	0.23	77.9	inactive
75	NKX2-3	3	-0.136	79.2	-0.146	92	inactive
